Test results as given in PubChem BioAssay AID2685 (National Center for Advancing Translational Sciences (NCATS), 2010).
The list shows a part of the results. Further columns of the screen follow, without active or inactive calls. The list favours compounds with an active or inconclusive main result. Potencies come from curve fits of mixed quality, noted in brackets.

Assay: qHTS Assay for Lipid Storage Modulators in Drosophila S3 Cells;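 for cell number change: cells counted by Cell Tracker Red CMTPX staining in the red channel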
Settings: BODIPY lipid droplet fluorescence, 18-24 h; for cell number change: measured here: cell count max response, cells fed with added oleic acid
Method in brief: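 Drosophila S3 cells got compounds at several concentrations plus oleic acid (400 uM solution). Laser-scanning cytometry with 488 nm excitation read lipid droplets at 500-530 nm and cells at 575-640 nm. Percent activity was relative to 20 uM Triacsin C.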

[1] = measured here: cell number channel AC50, cells fed with added oleic acid
[2] = measured here: lipid fluorescence (Fed channel) AC50, cells fed with added oleic acid

Row | Structure (SMILES) | cell number change | AC50 [1] | AC50 [2]
1 | CC(C)(C)N(NC(=O)Nc1ccc(Cl)cc1)C(=O)c1ccccc1 | 116% | 23.1 µM [rising, single point] | 
2 | CCN(CC)c1ccc2c(O)cc(=O)oc2c1 | -26.9% |  | 10.3 µM [falling, partial curve, poor fit]
3 | Nc1nc(-c2ccc(Oc3ccccc3)cc2)c(CC(=O)O)s1 | 29.6% | 4.11 µM [rising, full curve, poor fit] | 6.51 µM [rising, single point]
4 | CC(C)CN1CCC(=O)N(CCN=[N+]=[N-])CC1 | 24.9% |  | 0.58 µM [rising, single point]
5 | Cc1cc(=O)oc2cc(NC(=O)C(C)Oc3ccccc3)ccc12 (stereo unspecified) | 54.6% | 14.6 µM [rising, partial curve, poor fit] | 
6 | COc1ccc(/C(C)=N/NC(=O)c2ccccc2OCc2ccccc2)c(OC)c1 | 29.2% |  | 29.1 µM [rising, single point]
7 | Cc1ccc(OCc2cc(C(=O)N(C)Cc3cc(C4CC4)n[nH]3)no2)cc1C | 1.83% |  | 1.64 µM [rising, partial curve, poor fit]
8 | CC(O)CN(C)CC/C=C1/c2ccccc2CSc2ccccc21 (stereo unspecified) | 37.1% | 0.291 µM [rising, full curve] | 
9 | CC1(c2nnc(Cc3ccccc3)o2)CC(c2ccc(OC(F)(F)F)cc2)=NO1 (stereo unspecified) | -11.4% |  | 
10 | CSc1ccc(S(=O)(=O)NCC(=O)OCC(=O)NCc2cccs2)cc1[N+](=O)[O-] | -9% |  | 
11 | Clc1ccc(-n2nnnc2SCc2cn3ccccc3n2)cc1 | 185% | 29.1 µM [rising, single point] | 29.1 µM [rising, partial curve]
12 | CC(=O)c1c(C)[nH]c(C(=O)NCCc2c[nH]c3ccccc23)c1C | 11.4% |  | 13 µM [rising, partial curve]
13 | O=C1C=C(c2cc(C(F)(F)F)cc(C(F)(F)F)c2)C[C@@H](c2ccc3c(c2)OCO3)C1 | -39.7% | 29.1 µM [falling, single point] | 18.4 µM [falling, single point]
14 | Cc1cccc(Nc2nnc(SCC(=O)Nc3ccc(C(=O)O)cc3)s2)c1 | -30.7% | 0.00461 µM [falling, full curve] | 0.0058 µM [falling, full curve, poor fit]
15 | CN1CCN(CCCNC(=O)c2nnc(Cc3c(F)cccc3Cl)o2)CC1 | -44.2% | 9.2 µM [falling, partial curve, poor fit] | 20.6 µM [falling, single point]
16 | COc1ccc(-c2[nH]ncc2CNC(C)CCn2cccn2)cc1F (stereo unspecified) | 17.2% |  | 
17 | COc1cc(N(C)C)c([N+](=O)[O-])cc1C(=O)NC(C)CNc1ccc([N+](=O)[O-])cc1Cl (stereo unspecified) | 7.76% |  | 6.51 µM [rising, single point]
18 | CCC(c1nnnn1CCc1ccccc1)N(Cc1ccco1)Cc1cc2cccc(C)c2[nH]c1=O (stereo unspecified) | -12.8% |  | 
19 | O=C(CSc1nnc(CNC(=O)c2ccccc2F)o1)Nc1cccc(C(F)(F)F)c1 | 7.65% | 6.51 µM [rising, single point] | 
20 | COc1ccc(/C=C/c2ccc3cccc(O)c3n2)c(OC)c1OC | -23.4% |  | 25.9 µM [falling, partial curve, poor fit]

Row | Structure (SMILES) | cell number change | AC50 [1] | AC50 [2]
21 | O=C(NCc1ccccc1)C1=C[C@H](c2ccc(Br)cc2)C[C@H](OCc2ccc(CO)cc2)O1 | 15% |  | 23.1 µM [rising, single point]
22 | O=C(O)CCc1ccc(-c2ccccc2)n1CC1CCCO1 (stereo unspecified) | -47.8% | 29.1 µM [falling, single point] | 25.9 µM [falling, single point]
23 | Cc1ccccc1NC(=O)COC(=O)c1ccc(CSc2ccc(Cl)cc2)cc1 | 11.1% |  | 29.1 µM [rising, single point]
24 | S=c1[nH]nc(C2CCCCC2)n1/N=C/c1cccs1 | -51.1% | 29.1 µM [falling, single point] | 18.4 µM [falling, single point]
25 | CCn1cc(C(=O)N2CCN(c3ccccn3)CC2)c2cc(OC)c(OC)cc2c1=O | 15.9% |  | 0.00411 µM [rising, full curve, poor fit]
26 | NC(=O)Cc1ccc(Nc2nnc(-c3ccccc3)c3ccccc23)cc1 | -20.3% |  | 14.6 µM [falling, partial curve, poor fit]
27 | O=C(OCC(=O)N1CCCc2ccccc21)c1cc(Cl)ccc1O | 41.1% |  | 18.4 µM [rising, single point]
28 | Cc1ccc(NC(=O)c2[nH]cnc2C(=O)NN)cc1 |  | 0.146 µM [rising, full curve, poor fit] | 0.092 µM [rising, full curve, poor fit]
29 | CC1CCCCN1S(=O)(=O)c1ccc(S(=O)(=O)N2CCN(C)CC2)cc1 (stereo unspecified) | -15.2% |  | 29.1 µM [falling, single point]
30 | COC(=O)c1sccc1NC(=O)COc1ccc(C)cc1 | -40.4% | 29.1 µM [falling, single point] | 32.6 µM [falling, single point]
31 | COc1ccc(N(C(=O)c2snc(C(N)=O)c2N)C(C(=O)NC2CCCCC2)c2ccc(C)o2)c(OC)c1 (stereo unspecified) | -5.22% |  | 0.58 µM [rising, single point]
32 | CC(=O)N1CCN(c2ccc([N+](=O)[O-])c(NCc3cccnc3)c2)CC1 | 48.9% | 20.6 µM [rising, partial curve, poor fit] | 
33 | COc1ccc(O[C@H]2C=C[C@@H](c3ccccc3)O[C@@H]2COC(=O)CC/C(C)=N/O[C@@H](C)c2cc(-c3c(C)cc(C)cc3C)no2)cc1 | -6.57% |  | 6.51 µM [rising, partial curve]
34 | NS(=O)(=O)c1ccc(CCNc2ccc(C(F)(F)F)cn2)cc1 | 58.7% | 11.6 µM [rising, partial curve, poor fit] | 
35 | COC(=O)c1ccc(NC(=S)N2CCN(CCO)CC2)cc1 | 3.41% |  | 18.4 µM [rising, partial curve]
36 | CCOC(=O)c1nc(NNC(C)=O)sc1C | -4.63% |  | 
37 | Cc1cc(/C=N/n2c(COc3ccccc3)nc3ccccc3c2=O)c(O)c([N+](=O)[O-])c1 | -10.3% |  | 
38 | O=C(c1ccc2c(=O)n3c(nc2c1)CCCCC3)N1CCCCC1 | -54.1% | 29.1 µM [falling, single point] | 
39 | COc1cc(/C=N/OCC(=O)NC2CCCCC2)ccc1OCc1ccccc1 | 79.1% | 29.1 µM [rising, partial curve, poor fit] | 
40 | O=C(c1ccc(S(=O)(=O)Nc2cccc(C(F)(F)F)c2)cc1)N1CCN(c2ccccc2O)CC1 | -60.7% | 20.6 µM [falling, partial curve] | 2.06 µM [falling, partial curve]

Row | Structure (SMILES) | cell number change | AC50 [1] | AC50 [2]
41 | COCCn1nnnc1CN1CCN2CCCC2C1 (stereo unspecified) | -7.15% |  | 0.146 µM [falling, full curve, poor fit]
42 | CC(C)(C)c1ccc(C(=O)N2CCN(Cc3ccccc3)CC2)cc1 | 1.65% |  | 
43 | CC(=O)CCC1CC(c2ccc(Cl)cc2)=NO1 (stereo unspecified) | 16% | 3.66 µM [falling, single point] | 8.2 µM [rising, partial curve]
44 | COc1ccccc1N1CCN(/N=C\c2cccnc2)CC1 | 18.9% |  | 
45 | CCc1[nH]nc2c1C(c1cccnc1)C(C#N)=C(N)O2 (stereo unspecified) | -89.6% | 13 µM [falling, partial curve] | 0.0259 µM [rising, full curve]
46 | Cc1nn(C(C)C(=O)NC2CCCCC2)c(=O)c2nn(-c3ccccc3)c(C)c12 (stereo unspecified) | -4.25% |  | 29.1 µM [rising, single point]
47 | O=C(NC1CC1)C1=C[C@H](c2ccc(C(F)(F)F)cc2)C[C@H](OCc2ccc(CO)cc2)O1 | -1.99% |  | 0.058 µM [rising, full curve, poor fit]
48 | CCN(CC)S(=O)(=O)c1cc(C(=O)O)ccc1OC | -22.1% |  | 29.1 µM [falling, single point]
49 | O=C(CNC(=O)c1ccc2c(c1)OCO2)Nc1cccc(Br)c1 | -2.97% |  | 6.51 µM [rising, single point]
50 | CC1(C)Nc2ccccc2N(Cc2ccc([N+](=O)[O-])cc2)C1=O | 90.9% | 29.1 µM [rising, single point] | 
51 | COc1cccc(N2CCN(c3ccc4nnc(CCC(=O)Nc5ccc(OC)c(OC)c5)n4n3)CC2)c1 | 1.49% |  | 2.91 µM [falling, full curve]
52 | O=C(CCCN1C(=O)c2cccc3cccc(c23)C1=O)N1CCN(c2ccccc2O)CC1 |  |  | 29.1 µM [falling, single point]
53 | COc1ccc(C)cc1NC(=O)CCCN1C(=O)CN(C)C1=O | -1.13% |  | 0.00731 µM [rising, full curve, poor fit]
54 | CC(NC(=O)c1ccco1)c1nc(-c2ccccc2)no1 (stereo unspecified) |  |  | 14.6 µM [falling, partial curve]
55 | COc1cc(C(=O)NCCCCCC(=O)O)cc(OC)c1OC | 0.621% |  | 0.651 µM [rising, full curve, poor fit]
56 | Cc1nn(-c2ccccc2)c(C)c1C(=O)OCC(=O)N1c2ccccc2NC(=O)C1(C)C | 17% |  | 0.651 µM [falling, full curve]
57 | C=CCn1ncc(OC)c(Cl)c1=O | 1.03% |  | 
58 | CC1Sc2ccc(S(=O)(=O)CCC(=O)Nc3cc(F)ccc3F)cc2NC1=O (stereo unspecified) | 16.8% |  | 16.4 µM [rising, partial curve]

5 of these compounds in another layout:
Row	Structure (SMILES)	cell number change	AC50 [1]	AC50 [2]
48	CCN(CC)S(=O)(=O)c1cc(C(=O)O)ccc1OC	-22.1%		29.1 µM [falling, single point]
49	O=C(CNC(=O)c1ccc2c(c1)OCO2)Nc1cccc(Br)c1	-2.97%		6.51 µM [rising, single point]
50	CC1(C)Nc2ccccc2N(Cc2ccc([N+](=O)[O-])cc2)C1=O	90.9%	29.1 µM [rising, single point]	
51	COc1cccc(N2CCN(c3ccc4nnc(CCC(=O)Nc5ccc(OC)c(OC)c5)n4n3)CC2)c1	1.49%		2.91 µM [falling, full curve]
52	O=C(CCCN1C(=O)c2cccc3cccc(c23)C1=O)N1CCN(c2ccccc2O)CC1			29.1 µM [falling, single point]
